Laboratory results as given in PubChem BioAssay AID1508600 (Functional Genomics Laboratory (NCATS/FGL), 2020).
About 3,700 (7%) of roughly 53,000 sequences were called active.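 Rule for the calls: active = gene knockdowns whose robust z-score for IL-1 alpha signal is at least 2 or at most -2, so actives lie on both sides; inactive = the rest.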 Some of the results follow.

Assay: Components of the Cytosolic LPS Sensing Pathway: Gene Identification via Genome-wide siRNA Screen;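 note: robust z of the log signal after scaling to non-targeting control siRNA wells of the plate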
Conditions: RAW264.7 macrophages, IL-1a HTRF, actives lie on both sides, screened at 100 nM (by protocol), cells primed 5 h with Pam3CSK4 first
How it was run: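 Using IL-1a HTRF as read-out, the screen measured release from RAW264.7 cells after 48h siRNA knockdown (100 nM), 5 h Pam3CSK4 priming and 24 h cytosolic LipidA. Values were expressed relative to negative-control wells as robust z-scores.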
With GGAGCUAAGGUGGUACGAGTT against Mib2 the z-score was inactive: -0.555.
In the case of GCAUGGAGGAAACCAUUAGTT against Slc38a3, the z-score is reported as inactive: -1.84.
For GGCCUUGGGCAUACUCAACTT against Star, the z-score was inactive: -0.562.
With GGAGAGACAGAGACAAAAUTT against Trim26 the z-score was inactive: -0.643.
In the case of GGAAUUGAACAUCAUUUGCTT against Suox, the z-score is reported as inactive: 1.09.
In the case of CCAUUACAUCAGCUUUAUUTT against Pamr1, the z-score is reported as inactive: -0.845.
In the case of GGAAAAGUUAAAGGAAGUCTT against Snrnp35, the z-score is reported as inactive: -1.37.
With GGAUGACAAGACAUCACUUTT against Yipf2 the z-score was inactive: 0.568.
For GGAGCAGCUGAGAGAAAAATT against Ccdc144b, the z-score was inactive: -0.413.
With GGGUAUGCUUCAGUGUUCATT against Nabp2 the z-score was inactive: 1.25.
In the case of GGCAUUGUAACCCUUGUAATT against Zscan26, the z-score is reported as inactive: -0.684.
With GCUAUGCUGUUUUAUGUGATT against Synpr the z-score was inactive: 0.212.
For GGAAGUAAAGCUCUACAAGTT against Vps28, the z-score was inactive: 0.236.
With GGGAGACGGCGAGGUUUUATT against Arl6ip4 the z-score was active: 2.89.
In the case of GGCGUGUUUGCUAAUUUAUTT against Pkd1, the z-score is reported as inactive: -0.646.
For GUUGAAAGUUAACCAAAACTT against H2ac4, the z-score was inactive: -1.61.
For GCGAGAAAAACGAUUCAGCTT against Sptbn2, the z-score was inactive: 0.386.
With GGCAAAUGUGGCCGUGUUUTT against Ccne1 the z-score was inactive: 0.175.
For GCAAACUGAAAAAACCCGCTT against Tssk3, the z-score was inactive: 0.366.
For GCAAAAGUAGAAGAACAACTT against Ccnt1, the z-score was inactive: -0.172.
For GGGUCUGAUCACUUAUAUUTT against Lysmd3, the z-score was active: 2.02.
With GGGUACAGUCCGAUACAGUTT against Nploc4 the z-score was inactive: -1.79.
With GGCAGACAAUCAAUGAAAUTT against Padi4 the z-score was inactive: -0.451.
For GGUUUGAAAAGCGAAUUUATT against Vps4a, the z-score was inactive: -0.151.
For GGUGGAGAAAAAUGCAACATT against Clnk, the z-score was inactive: -0.429.
In the case of GGCGCAGAGCAAAGGAUAUTT against Pcdha1, the z-score is reported as inactive: 0.197.
In the case of CCAAUUCCCAAAAUUAGCCTT against Ppm1k, the z-score is reported as inactive: -0.0304.
With GGGUUAUCCGUAUGUUUUCTT against Olfr557 the z-score was inactive: 0.964.
With GGGCUACUCUCUCAGGAUCTT against Dedd2 the z-score was inactive: 0.676.
For CCUACCGCUAUGUAGUCAGTT against Dnase1, the z-score was inactive: 0.329.
In the case of CCCUAGCUUUCUUCGAUGUTT against Spag6, the z-score is reported as inactive: 0.162.
For GGAACUGGAUGAAAACGGATT against S100a1, the z-score was inactive: 0.917.
In the case of GGAAAUCCAACUUCUUUCATT against Ebf2, the z-score is reported as active: 2.7.
For “GGUGCCUACCAUGAAGAACTT against 1700010D01Rik”, the z-score was inactive: 0.452.
In the case of GCAGCACCAUCACUAGUGUTT against Ndufs6, the z-score is reported as inactive: 0.399.
For GGGCAUUGGAUGUGCUGAATT against Clic3, the z-score was inactive: -0.473.
With GCUAAAUUUCCCAUAGGAATT against Pmch the z-score was inactive: 0.822.
With CCACAAAUGCUUCAAGCUATT against Defb29 the z-score was inactive: 0.125.
For GGAUCUUUAAGUUUUCCCGTT against Kcnd2, the z-score was inactive: 0.297.
With GGAAAGUCGAUAAUGACAATT against Wdr12 the z-score was inactive: 0.449.
For GCCAUUGGAGUAUAUCUUGTT against Olfr873, the z-score was inactive: -0.273.
In the case of GCUAGGAAGAGAGUGAUCUTT against Alg1, the z-score is reported as inactive: -1.03.
With GCACUUUAAGAGACAAUGUTT against Gpr63 the z-score was inactive: 0.302.
In the case of “GGAAACUUUUGAUUGUAACTT against 2810021J22Rik”, the z-score is reported as inactive: -0.0991.
For GGUGGUACCAAGUACAACUTT against Deaf1, the z-score was inactive: 1.22.
In the case of GCUACUAUCACAUAUGCACTT against Olfr1122, the z-score is reported as active: -2.09.
For GCAGUUACACUGAAUACAUTT against Kctd8, the z-score was inactive: 0.633.
With GCUUAAUAAUUUCAUCCAGTT against Brms1l the z-score was active: 2.44.
With GGGUUCGAGGGUUCUUGUGTT against Gna12 the z-score was inactive: -1.18.
With CCAUAUGUGAGAAACUACATT against Dbf4 the z-score was inactive: 0.258.
For CCCUCAACUUUCAGAUCAGTT against Naa10, the z-score was active: 2.81.
In the case of GGAAUACGAGGAAUACCAGTT against Cplx4, the z-score is reported as inactive: 0.506.
With GCACCUUGUCAACCAUUACTT against Kctd7 the z-score was inactive: 0.842.
With CCAUAAGUAGGAUUCUAUCTT against Meis2 the z-score was inactive: -0.447.
In the case of CGCCAUAGUCAUCUUCUAATT against AI987944, the z-score is reported as inactive: -1.36.
In the case of GGGUUAUCGAUAGAAAAUATT against Rag2, the z-score is reported as inactive: 0.0164.
In the case of GGCUUUGCUGAAUGUCUCATT against Nrn1l, the z-score is reported as inactive: 0.443.
With GGGCCGAUCAUGGUUAACATT against Cpt1a the z-score was inactive: -1.84.
In the case of CCGGAAAUUUCUGAUGGAGTT against Eif4ebp1, the z-score is reported as active: 2.19.
For GCAUGCCCGUAAUCAAGUGTT against Racgap1, the z-score was inactive: 0.104.
In the case of GCACAGUAGUUCUUGCAUCTT against Olfr891, the z-score is reported as inactive: 0.13.
For GGGAGUUUCACUGAAGCCATT against Prkch, the z-score was inactive: -1.52.
For GGAGGUGAUUUCGGGUAACTT against Ddr1, the z-score was inactive: 0.304.
For GGCAAUUCCCAGCACGAUGTT against Usp43, the z-score was inactive: -1.24.
In the case of GCCCAAUAUACUCUAAGGGTT against Cdh20, the z-score is reported as inactive: -0.306.
With GGUGUAUUUCACGGGACCATT against Rela the z-score was inactive: -1.
With GCUAAUGACCUGUGCCAAGTT against Sftpb the z-score was inactive: -0.24.
For GCUUCAAAAGGACAGGUCATT against Galnt13, the z-score was inactive: -0.2.
